± gives the standard deviation of the averaged measurements. Small differences around the control level are noise.
Assays:
Assay in all cases: level (log10 ratio to DMSO vehicle control); higher = higher biomarker level / cell amount than vehicle control
[1] = compound: CCOC(=O)CC(=O)C(F)(F)C(F)(F)F [Ethyl pentafluoropropionyl acetate]; conditions: 2200 nM; in DMSO
Experimental: (§1)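 BioMAP Diversity Plus panel of 12 human primary cell co-culture systems (3C, 4H, LPS, SAg, BT, BF4T, BE3C, CASM3C, HDF3CGF, KF3CT, MyoF, Mphg). Compounds were added 1 h before stimulation and left for 24 h (MyoF 48 h; BT 72 h for soluble read-outs or 6 d for IgG). Biomarkers were read by ELISA, cytotoxicity by SRB, PBMC viability and proliferation by Alamar Blue. Each well value was divided by the mean of 8 DMSO control wells on the same plate and log10 transformed; duplicate blinded samples were tested at 4 concentrations.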

[2] = compound: O=C(O)C(F)(F)OC(F)(F)C(F)(F)OC(F)(F)F [Perfluoro-3,6-dioxaheptanoic acid]; conditions: 2200 nM; in DMSO
Experimental: as §1

Perfluorodecanoic acid = compound: O=C(O)C(F)(F)C(F)(F)C(F)(F)C(F)(F)C(F)(F)C(F)(F)C(F)(F)C(F)(F)C(F)(F)F [Perfluorodecanoic acid]; conditions: in DMSO
Experimental: as §1

[3] = compound: C=CC(=O)OCC(F)(F)C(F)(F)C(F)(F)C(F)(F)C(F)(F)C(F)(F)C(F)(F)C(F)F [1H,1H,9H-Perfluorononyl acrylate]; conditions: 2200 nM; in DMSO
Experimental: as §1

[4] = compound: O=C(O)CCC(F)(C(F)(F)F)C(F)(F)F [4,4-bis(Trifluoromethyl)-4-fluoropropanoic acid]; conditions: 2200 nM; in DMSO
Experimental: as §1

[5] = compound: O=C(O)C(F)(F)OC(F)(F)C(F)(F)OC(F)(F)C(F)(F)OC(F)(F)C(F)(F)C(F)(F)C(F)(F)F [Perfluoro-3,6,9-trioxatridecanoic acid]; conditions: 2200 nM; in DMSO
Experimental: as §1

[6] = compound: O=C(CC(=O)C(F)(F)C(F)(F)C(F)(F)F)c1cccs1 [(Perfluorobutyryl)-2-thenoylmethane]; conditions: 2200 nM; in DMSO
Experimental: as §1

[7] = compound: OCC(F)(F)C(F)(F)C(F)(F)C(F)(F)C(F)(F)C(F)(F)C(F)(F)C(F)(F)CO [1H,1H,10H,10H-Perfluorodecane-1,10-diol]; conditions: 2200 nM; in DMSO
Experimental: as §1

[8] = compound: O=C(O)C(F)(F)C(F)(F)C(F)(F)C(F)(F)C(F)(F)C(F)(F)C(F)(F)F [Ammonium perfluorooctanoate]; conditions: 2200 nM; in DMSO
Experimental: as §1

Perfluorooctanoic acid = compound: O=C(O)C(F)(F)C(F)(F)C(F)(F)C(F)(F)C(F)(F)C(F)(F)C(F)(F)F [Perfluorooctanoic acid]; conditions: 2200 nM; in DMSO
Experimental: as §1

[9] = compound: FC(F)(F)C(F)(F)C(F)(F)C(F)(F)C(F)(F)C(F)(F)C(F)(F)C(F)(F)CCS [2-(Perfluorooctyl)ethanthiol]; conditions: in DMSO
Experimental: as §1

Perfluorononanoic acid = compound: O=C(O)C(F)(F)C(F)(F)C(F)(F)C(F)(F)C(F)(F)C(F)(F)C(F)(F)C(F)(F)F [Perfluorononanoic acid]; conditions: 2200 nM; in DMSO
Experimental: as §1

[10] = compound: OCC(F)(F)OC(F)(F)C(F)(F)OC(F)(F)C(F)(F)OC(F)(F)CO [1H,1H,11H,11H-Perfluorotetraethylene glycol]; conditions: 2200 nM; in DMSO
Experimental: as §1

Perfluorooctanamidine = compound: N=C(N)C(F)(F)C(F)(F)C(F)(F)C(F)(F)C(F)(F)C(F)(F)C(F)(F)F [Perfluorooctanamidine]; conditions: in DMSO
Experimental: as §1

Row | Test System | level (log10) [1] | level (log10) [2] | level (log10) (Perfluorodecanoic acid; 2200 nM) | level (log10) (Perfluorodecanoic acid; 6700 nM) | level (log10) (Perfluorodecanoic acid; 20000 nM) | level (log10) [3] | level (log10) [4] | level (log10) [5] | level (log10) [6] | level (log10) [7] | level (log10) [8] | level (log10) (Perfluorooctanoic acid) | level (log10) ([9]; 740 nM) | level (log10) ([9]; 2200 nM) | level (log10) (Perfluorononanoic acid) | level (log10) [10] | level (log10) (Perfluorooctanamidine; 2200 nM) | level (log10) (Perfluorooctanamidine; 6700 nM) | level (log10) (Perfluorooctanamidine; 20000 nM) | level (log10) (Perfluorooctanamidine; 60000 nM)
1 | BE3C:IL-1alpha | 0.0065 ± 0.064 | -0.0325 ± 0.05 | -0.013 ± 0.0099 | -0.0245 ± 0.00071 | -0.811 ± 0.055 | -0.014 ± 0.0042 | 0.011 ± 0.041 | 0.0125 ± 0.012 | 0.0035 ± 0.012 | 0.0255 ± 0.0064 | -0.002 ± 0.021 | 0.0225 ± 0.021 | -0.026 ± 0.027 | -0.0185 ± 0.013 | -0.0095 ± 0.037 | 0.016 ± 0.0085 | 0.012 ± 0.02 | 0.0065 ± 0.026 | 0.002 ± 0.0028 | 0.047
2 | HDF3CGF:EGFR | 0.0145 ± 0.035 | 0.028 ± 0.033 | 0.0325 ± 0.033 | -0.075 ± 0.054 | -0.195 ± 0.026 | 0.0015 ± 0.042 | -0.0255 ± 0.086 | 0.0055 ± 0.054 | 0.0025 ± 0.018 | -0.021 ± 0.0099 | 0.0055 ± 0.018 | 0.0065 ± 0.033 | -0.0425 ± 0.056 | -0.048 ± 0.0057 | -0.04 ± 0.0014 | 0.003 ± 0.035 | -0.003 ± 0.018 | -0.017 ± 0.02 | 0.01 ± 0.011 | -0.013
3 | HDF3CGF:CXCL8/IL-8 | -0.0005 ± 0.00071 | -0.0025 ± 0.00071 | -0.0015 ± 0.005 | 0.0065 ± 0.005 | 0.02 ± 0.011 | -0.0015 ± 0.0064 | 0.0315 ± 0.029 | 0.0115 ± 0.0064 | 0.011 ± 0.0028 | 0.0035 ± 0.025 | -0.002 ± 0.0099 | 0.0055 ± 0.0078 | -0.0035 ± 0.015 | 0.0005 ± 0.0035 | -0.0065 ± 0.015 | 0.008 ± 0.021 | -0.0015 ± 0.0078 | 0.006 ± 0.0014 | 0.0135 ± 0.005 | 0.007
4 | CASM3C:IL-6 | 0.01 ± 0.03 | -0.002 ± 0.013 | -0.0255 ± 0.056 | -0.035 ± 0.037 | -0.0375 ± 0.039 | 0.0155 ± 0.064 | 0.017 ± 0.076 | -0.025 ± 0.04 | -0.0265 ± 0.044 | 0.009 ± 0.052 | 0.009 ± 0.0057 | 0.007 ± 0.061 | 0.046 ± 0.035 | -0.0055 ± 0.032 | -0.0305 ± 0.035 | -0.001 ± 0.042 | 0.0195 ± 0.11 | -0.046 ± 0.023 | -0.041 ± 0.035 | 0.041
5 | BF4T:PAI-I | 0.0015 ± 0.013 | -0.0245 ± 0.03 | 0.017 ± 0.013 | 0.0185 ± 0.00071 | -0.119 ± 0.043 | 0.011 ± 0.016 | 0.014 ± 0.0057 | -0.007 ± 0.0099 | 0.0055 ± 0.0092 | 0.0185 ± 0.039 | 0.0105 ± 0.011 | 0.01 ± 0.0085 | -0.019 ± 0.023 | -0.014 ± 0.0028 | -0.0195 ± 0.023 | -0.0015 ± 0.018 | 0.007 | 0.007 ± 0.013 | -0.001 ± 0.03 | 0.03
6 | 4H:CD62P/P-selectin | 0.017 ± 0.013 | -0.0085 ± 0.023 | 0.0805 ± 0.0021 | 0.087 ± 0.0071 | 0.093 ± 0.033 | -0.007 ± 0.068 | -0.005 ± 0.025 | -0.0335 ± 0.05 | -0.0085 ± 0.071 | -0.037 ± 0.0071 | 0.0195 ± 0.073 | 0.001 ± 0.018 | 0.0055 ± 0.043 | -0.017 ± 0.044 | -0.0425 ± 0.067 | 0.0225 ± 0.059 | -0.011 ± 0.017 | -0.0165 ± 0.012 | -0.007 ± 0.0085 | -0.032
7 | lMphg:CD69 | 0.0245 ± 0.021 | 0.034 ± 0.031 | -0.024 ± 0.042 | -0.013 ± 0.054 | -0.055 ± 0.052 | -0.0195 ± 0.0021 | 0.0235 ± 0.022 | 0.018 ± 0.048 | 0.01 ± 0.013 | 0.0255 ± 0.0035 | -0.027 ± 0.011 | 0.016 ± 0.034 | -0.014 ± 0.051 | -0.035 ± 0.035 | 0.0225 ± 0.0021 | -0.012 ± 0.082 | 0.005 ± 0.038 | -0.048 ± 0.0028 | -0.052 ± 0.0085 | 0.029
8 | BE3C:Keratin 8/18 | 0.0035 ± 0.05 | -0.0415 ± 0.069 | -0.0095 ± 0.0064 | 0.0035 ± 0.029 | -0.337 ± 0.0035 | -0.006 ± 0.058 | -0.013 ± 0.023 | -0.017 ± 0.044 | -0.0385 ± 0.019 | -0.037 ± 0.014 | -0.0215 ± 0.015 | 0.005 ± 0.023 | -0.0245 ± 0.023 | -0.022 ± 0.018 | -0.0425 ± 0.023 | 0.0115 ± 0.00071 | -0.002 ± 0.031 | -0.0165 ± 0.0021 | -0.014 ± 0.0057 | 0.007
9 | BE3C:CXCL10/IP-10 | -0.014 ± 0.0085 | -0.0075 ± 0.019 | 0.0245 ± 0.0092 | -0.188 ± 0.088 | -1.16 | -0.005 ± 0.011 | 0.011 ± 0.017 | 0.029 ± 0.042 | 0.0105 ± 0.011 | -0.01 ± 0.023 | 0.029 ± 0.011 | -0.0095 ± 0.033 | 0.0265 ± 0.064 | 0.045 ± 0.044 | -0.033 ± 0.0028 | -0.0115 ± 0.013 | 0.0045 ± 0.012 | 0.0045 ± 0.023 | -0.0055 ± 0.0035 | 0.003
10 | HDF3CGF:CD106/VCAM-1 | -0.0025 ± 0.063 | -0.0555 ± 0.059 | -0.099 ± 0.073 | -0.0085 ± 0.026 | -0.623 ± 0.057 | -0.057 ± 0.072 | -0.0395 ± 0.04 | -0.0175 ± 0.029 | -0.02 ± 0.0099 | -0.023 ± 0.014 | -0.0335 ± 0.05 | -0.001 ± 0.021 | 0.0005 ± 0.005 | 0.006 ± 0.023 | -0.106 ± 0.11 | 0.0005 ± 0.021 | -0.037 ± 0.0099 | -0.0215 ± 0.013 | -0.132 ± 0.018 | -0.214
11 | SAg:CXCL9/MIG | -0.0115 ± 0.018 | 0.0255 ± 0.013 | 0 ± 0.014 | -0.006 ± 0.011 | -0.0025 ± 0.015 | -0.0025 ± 0.005 | 0.001 ± 0.016 | -0.0035 ± 0.0035 | -0.002 ± 0.0085 | -0.017 ± 0.0057 | 0.0055 ± 0.012 | -0.0025 ± 0.012 | -0.0035 ± 0.023 | 0.0035 ± 0.012 | 0.0075 ± 0.013 | -0.011 ± 0.011 | 0.0085 ± 0.018 | 0 ± 0.0085 | 0.0085 ± 0.0021 | 0.007
12 | lMphg:IL-1alpha | -0.0085 ± 0.035 | -0.015 | 0.004 ± 0.027 | 0.0085 ± 0.0078 | 0.013 ± 0.02 | 0.02 ± 0.03 | 0.001 ± 0.023 | 0.0185 ± 0.016 | 0.023 ± 0.031 | 0.028 ± 0.045 | 0.0005 ± 0.016 | 0.032 ± 0.044 | -0.005 ± 0.065 | -0.008 ± 0.083 | -0.0765 ± 0.053 | 0.018 ± 0.024 | -0.042 ± 0.017 | -0.011 ± 0.024 | -0.004 ± 0.044 | 0.027

From the supplement of paper PMC10331698
